Converted amounts (≈) assume the structure as drawn.
What was measured:
[1] = Lipophilicity, log D of the compound; conditions: octanol/water
[2] = physchem; conditions: buffer, pH 4.3

Structure (SMILES): CS(=O)(=O)NCc1noc([C@H](CCCC2CCCCC2)CC(=O)NO)n1
- logD [1]: 2.3
- solubility [2]: 4560 µg/mL (≈ 11.7 mM)

From ChEMBL document CHEMBL1146210, “Potent and selective nonpeptidic inhibitors of procollagen C-proteinase” (J Med Chem, 2007)
